At least one structure is not confirmed: it was looked up by name or label, or the drawing left a doubt.
Test system: V79 cells
Assay: Survival (colony forming ability) of V79 cells with enzyme-activated prodrugs (Table 8)
Format: cell-based
Settings: NR 10 μg/ml + 10 μM prodrug + 500 μM NADH
Experimental: Generation of cytotoxicity by the action of the E. coli nitroreductase of Example 1 upon the prodrugs 4-[bis(2-chloroethyl)amino]phenylcarbamic acid 4'-nitrobenzyl ester (I where R^1 NH2 =III) and N-4-nitrobenzyloxy-carbonyl-actinomycin D (V) are shown in Table 8.
The effect of enzyme-activated prodrugs on the survival of V79
cells. 1 ml volumes of V79 cells (2 × 10^5 /ml) were incubated
with prodrug, 500 μM NADH, and 10 μg/ml enzyme. After a 2 hour
incubation at 37° C., the cells were harvested and assayed for
their colony forming ability, and the supernatant assayed for
the concentration of remaining prodrug by HPLC.

## Cc1c2oc3c(C)ccc(C(=O)NC4C(=O)NC(C(C)C)C(=O)N5CCCC5C(=O)N(C)CC(=O)N(C)C(C(C)C)C(=O)OC4C)c3nc-2c(C(=O)NC2C(=O)NC(C(C)C)C(=O)N3CCCC3C(=O)N(C)CC(=O)N(C)C(C(C)C)C(=O)OC2C)c(NC(=O)OCc2ccc([N+](=O)[O-])cc2)c1=O (stereo not shown) [V, N-4-Nitrobenzyloxycarbonyl-actinomycin D]
  % SURVIVAL: .0.0001%

Reference: US5977065A, “Bacterial nitroreductase for the reduction of CB1954 and analogues thereof to a cytotoxic form” (Cancer Research Campaign Technology Limited, priority 1991, dated 1999)
